# PubChem BioAssay AID1159578, Peter MacCallum Cancer Centre | 2015
# Screen: 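Genome-wide hunt for genes controlling movement of lymphatic endothelial cells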 (primary screen)
# Cells: human lymphatic endothelial cells
# Knock-down reagent: siRNA pool against human genes, 40 nM
# Duration: 48 h after transfection
# Read-out: 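High-content imaging of dye-stained cells in a scratch assay measures filled wound area and nuclei per well; duplicate means given as ratio to mock and robust z-score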
# Direction: migration robust z-score: higher = faster migration into the scratch; migration relative to mock: higher = more scratch area covered than mock; nuclei per well: higher = more cells in the well
# Call rule: 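Pools averaging fewer than 3300 nuclei are never called; remaining pools count as changed when migration robust z lies outside -2 to 2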
# Calls: active = migration changed; inactive = no migration change, or too few cells
# In all, the deposit lists about 18,000 reagents; shown is an unselected part. About 1,030 of all reagents (5.7%) count as active. 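Inactive calls also include pools with fewer than 3300 nuclei, whose migration was not assessed.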 Raw values vary from plate to plate and are shown uncorrected. Unmarked entries are inactive. No sequences are given here.
gene knocked down,migration robust z-score,migration class with cell-count check,migration relative to mock,"nuclei per well, duplicate mean"
UBA7 (ubiquitin like modifier activating enzyme 7),0.73,migration z between -2 and 2; enough cells,0.94,6426
RIC8B (RIC8 guanine nucleotide exchange factor B),-0.39,migration z between -2 and 2; enough cells,0.78,5970
PARVG (parvin gamma),0.32,migration z between -2 and 2; enough cells,0.96,5799
DNAJB12 (DnaJ heat shock protein family (Hsp40) member B12),0.57,migration z between -2 and 2; enough cells,1.03,5400
PIGX (phosphatidylinositol glycan anchor biosynthesis class X),2.02 (active),migration z above 2; enough cells,1.41,6067
SLC13A4,-1.19,migration z between -2 and 2; enough cells,0.57,3536
"PIM3 (Pim-3 proto-oncogene, serine/threonine kinase)",-0.21,migration z between -2 and 2; enough cells,0.76,6717
ANKRD7 (ankyrin repeat domain 7),-0.65,migration z between -2 and 2; enough cells,0.68,5600
REG3G (regenerating family member 3 gamma),-1.61,migration z between -2 and 2; enough cells,0.47,4332
PADI3 (peptidyl arginine deiminase 3),0.7,migration z between -2 and 2; enough cells,0.94,5446
OR8G1 (olfactory receptor family 8 subfamily G member 1),-0.68,migration z between -2 and 2; enough cells,0.71,4058
HTR3B (5-hydroxytryptamine receptor 3B),0.52,migration z between -2 and 2; enough cells,0.9,5190
KISS1R (KISS1 receptor),0.6,migration z between -2 and 2; enough cells,0.92,6430
IGFBP7 (insulin like growth factor binding protein 7),-0.96,migration z between -2 and 2; enough cells,0.62,5369
KIF1A (kinesin family member 1A),-0.2,migration z between -2 and 2; enough cells,0.84,5822
TMIGD1 (transmembrane and immunoglobulin domain containing 1),-0.67,migration z between -2 and 2; enough cells,0.71,3619
GOT2 (glutamic-oxaloacetic transaminase 2),0.91,migration z between -2 and 2; enough cells,0.98,5230
SPATA12 (spermatogenesis associated 12),0.16,migration z between -2 and 2; enough cells,0.92,4964
KRT83 (keratin 83),-0.76,migration z between -2 and 2; enough cells,0.68,6739
NSMAF (neutral sphingomyelinase activation associated factor),0.19,migration z between -2 and 2; enough cells,0.93,5277
MDN1 (midasin AAA ATPase 1),-1.38,migration z between -2 and 2; enough cells,0.54,5536
NLRP7 (NLR family pyrin domain containing 7),0.15,migration z between -2 and 2; enough cells,0.93,4006
KDM3B (lysine demethylase 3B),-1.5,migration z between -2 and 2; enough cells,0.5,5048
PAQR9 (progestin and adipoQ receptor family member 9),1.81,migration z between -2 and 2; enough cells,1.36,6474
KCNIP1 (potassium voltage-gated channel interacting protein 1),2.29 (active),migration z above 2; enough cells,1.25,5690
OR8K1 (olfactory receptor family 8 subfamily K member 1),-0.59,migration z between -2 and 2; enough cells,0.73,5108
ANAPC16 (anaphase promoting complex subunit 16),1.25,migration z between -2 and 2; enough cells,1.21,6291
COPS8 (COP9 signalosome subunit 8),-0.8,migration z between -2 and 2; enough cells,0.68,5438
RBM4B (RNA binding motif protein 4B),-0.84,migration z between -2 and 2; enough cells,0.66,5808
XRCC4 (X-ray repair cross complementing 4),-1.12,migration z between -2 and 2; enough cells,0.59,5574
SHC3 (SHC adaptor protein 3),-1.34,under 3300 nuclei; migration not judged,0.54,3262
MAMSTR,0.42,migration z between -2 and 2; enough cells,1,5910
CHMP6 (charged multivesicular body protein 6),0.66,migration z between -2 and 2; enough cells,1.06,6114
SLC27A3,-1.53,migration z between -2 and 2; enough cells,0.51,6761
GPC5 (glypican 5),-0.04,migration z between -2 and 2; enough cells,0.88,5082
PLEKHG6 (pleckstrin homology and RhoGEF domain containing G6),1.06,migration z between -2 and 2; enough cells,1.17,6246
SYT5 (synaptotagmin 5),-1.01,migration z between -2 and 2; enough cells,0.62,5802
ZNF611 (zinc finger protein 611),0.12,migration z between -2 and 2; enough cells,0.92,5299
HINT1 (histidine triad nucleotide binding protein 1),-0.8,migration z between -2 and 2; enough cells,0.65,5754
CSMD2 (CUB and Sushi multiple domains 2),-0.54,migration z between -2 and 2; enough cells,0.74,5664
ZNF620 (zinc finger protein 620),0.9,migration z between -2 and 2; enough cells,1.12,6566
PTGDR2 (prostaglandin D2 receptor 2),-0.31,migration z between -2 and 2; enough cells,0.74,6344
MTHFSD (methenyltetrahydrofolate synthetase domain containing),0.49,migration z between -2 and 2; enough cells,1.02,5503
ELSPBP1 (epididymal sperm binding protein 1),-1.61,migration z between -2 and 2; enough cells,0.46,5816
MMP25 (matrix metallopeptidase 25),-1.77,migration z between -2 and 2; enough cells,0.46,5230
PGF (placental growth factor),0.68,migration z between -2 and 2; enough cells,0.94,6052
SASH3 (SAM and SH3 domain containing 3),-0.57,migration z between -2 and 2; enough cells,0.74,5476
ARHGAP24 (Rho GTPase activating protein 24),0.12,migration z between -2 and 2; enough cells,0.92,6298
ELAC1 (elaC ribonuclease Z 1),1.45,migration z between -2 and 2; enough cells,1.08,6066
C1QTNF12 (C1q and TNF related 12),-0.13,migration z between -2 and 2; enough cells,0.86,7134
BEX1 (brain expressed X-linked 1),0.92,migration z between -2 and 2; enough cells,1.12,4960
CAPN9 (calpain 9),0.26,migration z between -2 and 2; enough cells,0.86,5008
USPL1 (ubiquitin specific peptidase like 1),-0.78,migration z between -2 and 2; enough cells,0.66,5260
GTPBP8 (GTP binding protein 8),-1.09,migration z between -2 and 2; enough cells,0.6,4462
TRAPPC3 (trafficking protein particle complex subunit 3),-0.3,migration z between -2 and 2; enough cells,0.8,5357
PHRF1 (PHD and ring finger domains 1),0.23,migration z between -2 and 2; enough cells,0.85,5098
WBP11 (WW domain binding protein 11),-0.26,migration z between -2 and 2; enough cells,0.76,5383
